Data reported in the supplement of paper PMC12823440, “Inhibitors supercharge kinase turnover through native proteolytic circuits” (Nature, 2025).
Where a name gives a salt, the structure may show the parent alone. This is one part of the list. The calls rarely recur for the same compound in another form.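 Kinases were expressed as nanoluciferase fusions in K562 cells and luminescence was read every 4 h between 2 and 18 h as percent of control, DMSO set to 100% and a positive control to 0%. A time point counts as decreased when the signal drops significantly (2 sigma). The hit call is the authors' own, does not follow from the count of time points alone, and its rule is not shown.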

Sequences of proteins named here, by UniProt entry; tags and fusion partners are left off. A change or cut given only in a name is not applied to a line headed by its entry.
UniProt P07949, whole entry, looked up: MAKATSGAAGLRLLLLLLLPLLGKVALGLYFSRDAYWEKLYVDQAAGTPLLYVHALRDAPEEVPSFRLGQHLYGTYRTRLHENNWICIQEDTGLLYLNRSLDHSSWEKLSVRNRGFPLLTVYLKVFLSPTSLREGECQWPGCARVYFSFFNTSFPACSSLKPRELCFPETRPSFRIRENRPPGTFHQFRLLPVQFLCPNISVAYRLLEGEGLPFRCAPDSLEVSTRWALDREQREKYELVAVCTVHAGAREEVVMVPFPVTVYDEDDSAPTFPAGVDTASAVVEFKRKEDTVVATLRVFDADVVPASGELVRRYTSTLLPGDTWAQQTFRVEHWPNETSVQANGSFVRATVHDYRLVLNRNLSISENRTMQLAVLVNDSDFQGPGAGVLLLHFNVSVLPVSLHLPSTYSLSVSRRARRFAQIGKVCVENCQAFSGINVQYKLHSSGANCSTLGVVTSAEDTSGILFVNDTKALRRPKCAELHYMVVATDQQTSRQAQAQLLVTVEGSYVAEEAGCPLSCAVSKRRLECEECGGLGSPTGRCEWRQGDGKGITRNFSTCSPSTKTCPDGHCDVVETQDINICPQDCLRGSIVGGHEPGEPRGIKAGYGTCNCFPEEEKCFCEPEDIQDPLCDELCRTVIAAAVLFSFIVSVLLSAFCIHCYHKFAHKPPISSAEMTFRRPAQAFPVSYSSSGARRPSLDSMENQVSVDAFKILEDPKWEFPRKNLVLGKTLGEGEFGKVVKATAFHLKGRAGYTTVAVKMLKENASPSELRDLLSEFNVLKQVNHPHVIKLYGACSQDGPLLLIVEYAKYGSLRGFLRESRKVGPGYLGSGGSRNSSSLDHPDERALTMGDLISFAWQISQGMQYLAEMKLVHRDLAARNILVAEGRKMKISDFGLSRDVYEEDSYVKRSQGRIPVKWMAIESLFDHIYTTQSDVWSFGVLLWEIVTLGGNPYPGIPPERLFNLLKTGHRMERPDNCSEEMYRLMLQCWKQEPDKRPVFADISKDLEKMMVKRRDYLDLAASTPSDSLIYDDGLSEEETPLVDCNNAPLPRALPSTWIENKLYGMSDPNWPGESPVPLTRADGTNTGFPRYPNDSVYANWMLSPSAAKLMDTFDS
UniProt P07949, whole entry M918T, looked up: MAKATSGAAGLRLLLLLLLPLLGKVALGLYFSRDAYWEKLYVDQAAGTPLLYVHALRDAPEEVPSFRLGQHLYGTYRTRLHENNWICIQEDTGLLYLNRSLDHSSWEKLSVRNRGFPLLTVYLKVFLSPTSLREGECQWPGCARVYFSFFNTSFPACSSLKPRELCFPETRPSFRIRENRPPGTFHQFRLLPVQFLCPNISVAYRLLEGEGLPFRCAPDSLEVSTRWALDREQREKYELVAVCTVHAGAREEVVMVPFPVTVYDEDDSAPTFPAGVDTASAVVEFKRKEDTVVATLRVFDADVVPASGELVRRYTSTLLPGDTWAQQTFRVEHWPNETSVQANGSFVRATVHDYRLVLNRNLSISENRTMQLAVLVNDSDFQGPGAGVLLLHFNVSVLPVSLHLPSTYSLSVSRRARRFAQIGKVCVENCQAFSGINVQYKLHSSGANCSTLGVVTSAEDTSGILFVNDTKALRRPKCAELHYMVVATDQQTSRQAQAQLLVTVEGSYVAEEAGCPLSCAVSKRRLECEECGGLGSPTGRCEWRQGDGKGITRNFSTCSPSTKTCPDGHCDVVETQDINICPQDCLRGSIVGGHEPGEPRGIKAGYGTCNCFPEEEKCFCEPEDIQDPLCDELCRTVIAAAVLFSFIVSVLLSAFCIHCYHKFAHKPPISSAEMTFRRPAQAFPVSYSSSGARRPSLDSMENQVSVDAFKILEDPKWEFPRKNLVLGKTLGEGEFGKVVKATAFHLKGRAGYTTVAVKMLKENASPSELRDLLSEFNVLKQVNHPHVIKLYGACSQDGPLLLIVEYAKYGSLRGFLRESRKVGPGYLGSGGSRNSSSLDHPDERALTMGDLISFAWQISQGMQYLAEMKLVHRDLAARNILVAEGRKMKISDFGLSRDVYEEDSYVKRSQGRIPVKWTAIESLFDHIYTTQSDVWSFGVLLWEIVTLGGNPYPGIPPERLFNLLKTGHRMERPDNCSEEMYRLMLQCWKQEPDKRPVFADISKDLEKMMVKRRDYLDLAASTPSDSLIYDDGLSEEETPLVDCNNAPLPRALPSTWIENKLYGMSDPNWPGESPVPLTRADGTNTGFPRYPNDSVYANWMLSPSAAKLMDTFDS
UniProt Q9BRS2: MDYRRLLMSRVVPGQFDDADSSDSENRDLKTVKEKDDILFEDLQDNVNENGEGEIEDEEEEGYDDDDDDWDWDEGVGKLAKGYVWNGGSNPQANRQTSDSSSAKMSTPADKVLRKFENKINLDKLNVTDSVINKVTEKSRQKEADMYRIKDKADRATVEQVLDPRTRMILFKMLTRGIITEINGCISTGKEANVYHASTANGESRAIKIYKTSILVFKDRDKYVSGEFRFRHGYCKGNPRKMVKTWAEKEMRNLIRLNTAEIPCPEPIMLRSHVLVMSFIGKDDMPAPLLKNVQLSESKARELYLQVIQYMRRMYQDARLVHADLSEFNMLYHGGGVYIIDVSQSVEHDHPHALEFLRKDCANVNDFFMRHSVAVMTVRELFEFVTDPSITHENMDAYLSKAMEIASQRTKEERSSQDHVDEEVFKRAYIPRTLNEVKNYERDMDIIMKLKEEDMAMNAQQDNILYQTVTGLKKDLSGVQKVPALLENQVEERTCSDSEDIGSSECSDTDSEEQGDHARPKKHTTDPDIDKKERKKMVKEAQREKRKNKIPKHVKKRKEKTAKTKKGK
UniProt Q01974, whole entry: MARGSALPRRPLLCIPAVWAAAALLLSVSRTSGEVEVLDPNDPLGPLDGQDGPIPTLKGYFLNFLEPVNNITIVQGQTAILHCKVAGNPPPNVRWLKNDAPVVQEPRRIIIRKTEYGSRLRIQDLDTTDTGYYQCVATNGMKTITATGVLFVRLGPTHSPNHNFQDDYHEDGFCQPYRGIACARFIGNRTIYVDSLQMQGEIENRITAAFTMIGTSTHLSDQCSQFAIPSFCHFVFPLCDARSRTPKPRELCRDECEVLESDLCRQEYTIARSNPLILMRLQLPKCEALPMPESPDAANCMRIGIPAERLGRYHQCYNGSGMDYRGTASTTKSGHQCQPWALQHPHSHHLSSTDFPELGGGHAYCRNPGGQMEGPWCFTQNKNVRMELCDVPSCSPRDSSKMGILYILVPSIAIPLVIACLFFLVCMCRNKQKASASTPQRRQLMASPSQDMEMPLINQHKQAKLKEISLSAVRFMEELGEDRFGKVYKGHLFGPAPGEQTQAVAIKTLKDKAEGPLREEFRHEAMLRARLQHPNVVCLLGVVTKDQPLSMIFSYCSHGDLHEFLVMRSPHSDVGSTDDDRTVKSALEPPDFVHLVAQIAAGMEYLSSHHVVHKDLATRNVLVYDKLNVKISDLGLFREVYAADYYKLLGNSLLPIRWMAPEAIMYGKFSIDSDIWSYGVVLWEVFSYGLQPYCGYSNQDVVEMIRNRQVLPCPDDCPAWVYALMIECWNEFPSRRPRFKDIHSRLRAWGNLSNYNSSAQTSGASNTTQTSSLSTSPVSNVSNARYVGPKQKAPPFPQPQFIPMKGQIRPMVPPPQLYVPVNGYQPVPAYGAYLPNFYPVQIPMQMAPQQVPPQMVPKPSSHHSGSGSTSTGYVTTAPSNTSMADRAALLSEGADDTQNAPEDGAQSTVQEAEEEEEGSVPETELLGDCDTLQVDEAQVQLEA
UniProt Q15418, whole entry: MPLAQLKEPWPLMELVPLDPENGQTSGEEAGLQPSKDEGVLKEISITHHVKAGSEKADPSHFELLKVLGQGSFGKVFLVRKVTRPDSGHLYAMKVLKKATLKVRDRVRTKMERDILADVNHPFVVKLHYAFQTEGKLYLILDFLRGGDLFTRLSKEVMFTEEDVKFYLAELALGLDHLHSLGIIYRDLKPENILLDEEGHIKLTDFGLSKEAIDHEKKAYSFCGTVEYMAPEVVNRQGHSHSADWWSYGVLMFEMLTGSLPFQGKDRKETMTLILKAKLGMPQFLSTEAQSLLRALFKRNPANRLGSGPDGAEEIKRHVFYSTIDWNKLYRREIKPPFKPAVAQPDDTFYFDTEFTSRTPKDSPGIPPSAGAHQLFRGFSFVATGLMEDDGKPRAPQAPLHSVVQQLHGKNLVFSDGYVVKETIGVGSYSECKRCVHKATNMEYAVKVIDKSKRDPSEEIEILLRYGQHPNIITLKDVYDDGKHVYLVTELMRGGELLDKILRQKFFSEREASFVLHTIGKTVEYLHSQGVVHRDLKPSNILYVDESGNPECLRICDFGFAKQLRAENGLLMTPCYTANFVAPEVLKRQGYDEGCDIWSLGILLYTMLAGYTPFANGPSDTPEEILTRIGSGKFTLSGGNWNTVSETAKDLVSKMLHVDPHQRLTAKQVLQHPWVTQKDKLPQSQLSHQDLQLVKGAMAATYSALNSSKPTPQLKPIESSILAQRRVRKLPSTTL
UniProt Q9NYA1, whole entry: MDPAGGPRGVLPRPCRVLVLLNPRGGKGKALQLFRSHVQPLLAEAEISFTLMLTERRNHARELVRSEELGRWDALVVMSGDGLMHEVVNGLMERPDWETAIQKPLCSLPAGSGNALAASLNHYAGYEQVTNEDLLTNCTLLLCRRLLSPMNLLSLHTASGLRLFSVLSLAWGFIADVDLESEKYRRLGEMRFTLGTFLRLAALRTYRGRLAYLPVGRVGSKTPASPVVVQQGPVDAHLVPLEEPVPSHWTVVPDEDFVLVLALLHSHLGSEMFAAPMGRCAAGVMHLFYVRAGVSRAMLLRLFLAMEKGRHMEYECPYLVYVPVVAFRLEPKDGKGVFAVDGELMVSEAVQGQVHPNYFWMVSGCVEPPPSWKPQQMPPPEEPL
UniProt Q15208: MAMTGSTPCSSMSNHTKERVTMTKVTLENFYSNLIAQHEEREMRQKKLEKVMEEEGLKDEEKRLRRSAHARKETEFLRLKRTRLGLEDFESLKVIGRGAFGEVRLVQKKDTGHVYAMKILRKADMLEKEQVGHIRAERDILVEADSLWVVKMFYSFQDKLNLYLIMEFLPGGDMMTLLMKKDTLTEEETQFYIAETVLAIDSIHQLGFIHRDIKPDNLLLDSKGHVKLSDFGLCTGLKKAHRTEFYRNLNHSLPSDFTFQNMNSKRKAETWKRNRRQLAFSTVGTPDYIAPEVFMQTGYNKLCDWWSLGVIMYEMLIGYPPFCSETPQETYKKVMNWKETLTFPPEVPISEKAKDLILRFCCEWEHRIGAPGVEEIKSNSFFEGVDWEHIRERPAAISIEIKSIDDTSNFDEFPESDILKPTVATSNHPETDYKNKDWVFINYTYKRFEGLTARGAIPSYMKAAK
UniProt P42680: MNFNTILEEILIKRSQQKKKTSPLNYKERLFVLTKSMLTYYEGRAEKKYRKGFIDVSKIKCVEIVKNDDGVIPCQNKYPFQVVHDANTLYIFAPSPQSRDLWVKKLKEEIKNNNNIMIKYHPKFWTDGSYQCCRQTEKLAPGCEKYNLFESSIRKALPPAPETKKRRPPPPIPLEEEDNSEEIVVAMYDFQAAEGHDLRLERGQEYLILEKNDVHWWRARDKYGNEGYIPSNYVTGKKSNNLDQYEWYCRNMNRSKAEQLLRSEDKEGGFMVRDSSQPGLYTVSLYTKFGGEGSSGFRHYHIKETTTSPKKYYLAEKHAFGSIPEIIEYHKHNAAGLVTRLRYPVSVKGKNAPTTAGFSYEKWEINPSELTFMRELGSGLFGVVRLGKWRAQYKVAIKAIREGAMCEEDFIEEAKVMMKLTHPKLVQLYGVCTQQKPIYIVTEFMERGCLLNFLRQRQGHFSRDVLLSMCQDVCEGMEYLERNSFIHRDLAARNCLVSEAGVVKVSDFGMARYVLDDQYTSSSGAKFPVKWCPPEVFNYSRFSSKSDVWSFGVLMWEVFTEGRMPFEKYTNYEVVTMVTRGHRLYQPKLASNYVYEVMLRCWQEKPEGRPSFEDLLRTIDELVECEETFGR
UniProt Q6PHR2: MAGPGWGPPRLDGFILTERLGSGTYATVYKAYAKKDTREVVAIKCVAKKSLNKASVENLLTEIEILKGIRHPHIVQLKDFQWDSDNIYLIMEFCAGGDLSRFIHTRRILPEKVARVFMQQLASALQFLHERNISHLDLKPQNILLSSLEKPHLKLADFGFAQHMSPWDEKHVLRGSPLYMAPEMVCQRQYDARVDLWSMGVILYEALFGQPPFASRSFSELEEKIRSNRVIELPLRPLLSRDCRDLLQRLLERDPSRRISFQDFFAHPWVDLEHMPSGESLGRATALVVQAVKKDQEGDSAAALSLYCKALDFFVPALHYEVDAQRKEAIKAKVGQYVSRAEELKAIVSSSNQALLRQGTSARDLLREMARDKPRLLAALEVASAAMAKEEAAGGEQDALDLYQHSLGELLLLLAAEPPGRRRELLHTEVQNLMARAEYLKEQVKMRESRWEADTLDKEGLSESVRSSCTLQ

Columns and labels:
Test in all cases: number of time points (of 5) at which kinase-Nluc abundance scored as decreased, DMSO-normalised (count); higher = more persistent destabilization
Settings in all cases: K562; 2-18 h
PRKCA = PRKCA (UniProt P17252)
PTK2 = PTK2 (UniProt Q05397)
PTK2B = PTK2B (UniProt Q14289)
RAF1 = RAF1 (UniProt P04049)
[1] = molecular target: RAF1_S257L (clone: RAF1_mut) (UniProt P04049)
RET = RET (UniProt P07949)
[2] = molecular target: RET_M918T (clone: RET_mut) (UniProt P07949)
RIOK1 = RIOK1 (UniProt Q9BRS2)
RIPK1 = RIPK1 (UniProt Q13546)
RIPK2 = RIPK2 (UniProt O43353)
ROR2 = ROR2 (UniProt Q01974)
RPS6KA1 = RPS6KA1 (UniProt Q15418)
SPHK1 = SPHK1 (UniProt Q9NYA1)
SRC = SRC (UniProt P12931)
STK24 = STK24 (UniProt Q9Y6E0)
STK38 = STK38 (UniProt Q15208)
SYK = SYK (UniProt P43405)
TEC = TEC (UniProt P42680)
TYK2 = TYK2 (UniProt P29597)
ULK3 = ULK3 (UniProt Q6PHR2)

| SMILES | number of time points (PRKCA) | number of time points (PTK2) | number of time points (PTK2B) | number of time points (RAF1) | number of time points [1] | number of time points (RET) | number of time points [2] | number of time points (RIOK1) | number of time points (RIPK1) | number of time points (RIPK2) | number of time points (ROR2) | number of time points (RPS6KA1) | number of time points (SPHK1) | number of time points (SRC) | number of time points (STK24) | number of time points (STK38) | number of time points (SYK) | number of time points (TEC) | number of time points (TYK2) | number of time points (ULK3) |
| --- | --- | --- | --- | --- | --- | --- | --- | --- | --- | --- | --- | --- | --- | --- | --- | --- | --- | --- | --- | --- |
| O=C(/C=C/c1ccc(O)c(O)c1)c1ccc(O[C@@H]2O[C@H](CO)[C@@H](O)[C@H](O)[C@H]2O)c(O)c1O [Marein] (10 µM) | 0 | 0 | 0 | 0 | 0 | 0 | 0 | 0 | 0 | 0 | 0 | 0 | 0 | 0 | 0 | 0 | 0 | 0 | 0 | 0 |
| COc1cc(N2CCN(C)CC2)ccc1Nc1ncc2c(n1)N(C1CCC1)C(=O)N(c1c(C)cccc1C)C2 (2.5 µM) | 0 | 0 | 0 | 0 | 0 | 0 | 0 | 0 | 0 | 0 | 0 | 0 | 0 | 0 | 0 | 0 | 0 | 0 | 0 | 0 |
| CC(=NNC(=O)c1ccc(C)c(Br)c1)c1ccc(O)cc1O [mTOR inhibitor-1] (2.5 µM) | 0 | 0 | 0 | 0 | 0 | 0 | 0 | 0 | 0 | 0 | 0 | 0 | 0 | 0 | 0 | 0 | 0 | 1 | 1 | 0 |
| O=C1c2ccc(Nc3ccc(F)cc3F)cc2CCc2ccc(OC[C@H](O)CO)cc21 [Skepinone-L] (2.5 µM) | 0 | 0 | 0 | 0 | 0 | 0 | 0 | 0 | 0 | 0 | 0 | 0 | 0 | 0 | 0 | 0 | 0 | 0 | 0 | 0 |
| COC1(C(=O)N2Cc3nc(Cl)nc(N[C@H](C)c4cc(N)cc(C(F)(F)F)c4)c3C2)CCOCC1 (10 µM) | 0 | 0 | 0 | 0 | 0 | 0 | 0 | 0 | 0 | 0 | 0 | 0 | 0 | 0 | 0 | 0 | 0 | 0 | 0 | 0 |
| Cc1cc(Nc2cc3ncccc3c(N[C@@H]3C[C@H]4CC[C@@H](C3)N4CCC#N)n2)n[nH]1 [Izencitinib] (10 µM) | 0 | 0 | 0 | 0 | 0 | 0 | 0 | 0 | 0 | 0 | 0 | 0 | 0 | 0 | 0 | 0 | 0 | 0 | 0 | 0 |
| CC(C)CN(CC(=O)N1CCN(CC(OCc2ccc3ccccc3c2)c2ccc(Cl)cc2Cl)CC1)CC(C)C (stereo not given) [LYN-1604 (dihydrochloride)] (2.5 µM) | 0 | 0 | 0 | 0 | 0 | 0 | 0 | 0 | 0 | 0 | 0 | 0 | 0 | 0 | 0 | 0 | 0 | 0 | 0 | 0 |
| C=CC(=O)Nc1ccc(CN(C(=O)Nc2c(Cl)c(OC)cc(OC)c2Cl)c2cc(Nc3ccc(N4CCN(C)CC4)cc3)ncn2)cc1 (10 µM) | 0 | 0 | 0 | 0 | 0 | 0 | 0 | 0 | 0 | 0 | 0 | 0 | 0 | 0 | 0 | 0 | 0 | 0 | 0 | 0 |
| Nc1ncnc2c1ncn2[C@@H]1O[C@H](CO)C[C@H]1O [Cordycepin] (10 µM) | 0 | 0 | 0 | 0 | 0 | 0 | 0 | 0 | 0 | 0 | 0 | 0 | 0 | 0 | 0 | 0 | 0 | 0 | 0 | 0 |
| CNCc1ccccc1-c1csc([C@@H](C)Nc2nc(C)nc3cc(OC)c(OC)cc23)c1 (2.5 µM) | 0 | 0 | 0 | 0 | 2 | 0 | 0 | 1 | 1 | 0 | 0 | 0 | 0 | 0 | 0 | 0 | 0 | 0 | 0 | 2 |
| C#CCN(C)C(=O)CCNc1nc(N2CCN(C(=O)C=C)CC2)c2cc(Cl)c(-c3c(O)cccc3F)c(F)c2n1 [ARS-1323-alkyne] (2.5 µM) | 0 | 0 | 0 | 0 | 0 | 0 | 0 | 0 | 0 | 0 | 0 | 0 | 0 | 0 | 0 | 0 | 0 | 0 | 0 | 0 |
| CS(=O)(=O)c1ccc(-c2noc(C(F)(F)F)c2-c2ccccc2)cc1 (10 µM) | 0 | 0 | 0 | 0 | 0 | 0 | 0 | 0 | 0 | 0 | 0 | 0 | 0 | 0 | 0 | 0 | 0 | 0 | 0 | 0 |
| N#Cc1cccc(-c2c[nH]c3ncnc(N4CCOCC4)c23)c1 (10 µM) | 0 | 0 | 0 | 0 | 0 | 0 | 0 | 0 | 0 | 0 | 0 | 0 | 0 | 0 | 0 | 0 | 0 | 0 | 0 | 0 |
| CN1CCN(c2ccc(Nc3ncc4nc(Nc5ccccc5)n([C@@H]5CCN(S(=O)(=O)C6CC6)C5)c4n3)cc2)CC1 (2.5 µM) | 0 | 0 | 0 | 0 | 0 | 0 | 0 | 0 | 0 | 0 | 0 | 0 | 0 | 0 | 0 | 0 | 0 | 0 | 0 | 0 |
| COC1(c2sc3c(N4CCOCC4)nc(-c4cnc(N)nc4)nc3c2C)COC1 (2.5 µM) | 0 | 2 | 0 | 0 | 0 | 0 | 0 | 0 | 0 | 0 | 0 | 0 | 0 | 0 | 0 | 0 | 0 | 0 | 0 | 0 |
| CCn1c(=O)c(-c2ccc(-c3cncc(C)n3)cc2Cl)cc2cnc(NCCC3CCN(C)CC3)nc21 (10 µM) | 0 | 0 | 0 | 0 | 0 | 0 | 0 | 0 | 0 | 0 | 0 | 0 | 0 | 0 | 0 | 0 | 0 | 0 | 0 | 0 |
| O=C(Nc1nc2ccccc2[nH]1)c1cccc(-n2cccc2)c1 (10 µM) | 0 | 0 | 0 | 0 | 0 | 0 | 0 | 0 | 0 | 0 | 0 | 0 | 0 | 0 | 0 | 0 | 0 | 0 | 0 | 0 |

Shown in CSV form: entries from further up.
SMILES,number of time points (PRKCA),number of time points (PTK2),number of time points (PTK2B),number of time points (RAF1),number of time points [1],number of time points (RET),number of time points [2],number of time points (RIOK1),number of time points (RIPK1),number of time points (RIPK2),number of time points (ROR2),number of time points (RPS6KA1),number of time points (SPHK1),number of time points (SRC),number of time points (STK24),number of time points (STK38),number of time points (SYK),number of time points (TEC),number of time points (TYK2),number of time points (ULK3)
COC1(c2sc3c(N4CCOCC4)nc(-c4cnc(N)nc4)nc3c2C)COC1 (2.5 µM),0,2,0,0,0,0,0,0,0,0,0,0,0,0,0,0,0,0,0,0
CCn1c(=O)c(-c2ccc(-c3cncc(C)n3)cc2Cl)cc2cnc(NCCC3CCN(C)CC3)nc21 (10 µM),0,0,0,0,0,0,0,0,0,0,0,0,0,0,0,0,0,0,0,0
O=C(Nc1nc2ccccc2[nH]1)c1cccc(-n2cccc2)c1 (10 µM),0,0,0,0,0,0,0,0,0,0,0,0,0,0,0,0,0,0,0,0
